# Assay results taken from PubChem BioAssay AID493014 (National Center for Advancing Translational Sciences (NCATS), 2011).
# This is one part of the list. Shown are side measurements of this screen, not its main read-out; they come without a call. Compounds called inactive in the main read-out are mostly missing here. The note in brackets gives the kind of curve behind each potency; many fits are weak.
# Assay: qHTS Assay to Find Inhibitors of Chronic Active B-Cell Receptor Signaling
# Details: ABC-DLBCL IkBa-CBG/CBR reporter, luminescence ratio (green luciferase fused to IkBa over red control in TMD8 lymphoma cells), 4 h
# Outline: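 Cell line TMD8 (human ABC DLBCL), stably expressing tet-inducible CBG68-IkBa fusion and CBR; IMDM/0.5% FBS; cpd up to 46 uM; dox induction, 4 h, 37C/5% CO2; dual luminescence; green/red ratio; MG132 control.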
# [1] = measured here: CBR red luminescence, cell number
# [2] = measured here: IkBa-CBG green luminescence
structure (smiles),measurement,setting,value
NNC(=O)c1cccn(Cc2cccc(C(F)(F)F)c2)c1=O,AC50,[1],"1.58 µM [falling, partial curve, poor fit]"
Cc1ccc(SCc2[nH]nc3c2C2(CCSCC2)C(C#N)=C(N)O3)cc1,AC50,[1],"2.31 µM [falling, partial curve, poor fit]"
Cc1ccc(NC(=O)c2cc3ccccc3o2)cc1Cl,AC50,[1],"7.94 µM [falling, partial curve]"
NC(=O)c1ccc(-c2nnn(CC(=O)N(C3CCCCC3)C3CCS(=O)(=O)C3)n2)cc1 (stereo unspecified),AC50,[1],"16.4 µM [falling, partial curve, poor fit]"
Cc1cc(/C=C2\C(=O)NN(c3ccccc3)C2=O)c(C)n1-c1ccccc1O,AC50,[1],"12.6 µM [falling, partial curve]"
COc1ccc(S(=O)(=O)N2CCC(C(=O)OCC(=O)c3ccccc3)CC2)cc1[N+](=O)[O-],AC50,[1],"2.31 µM [rising, partial curve, poor fit]"
CCN(C(=O)COC(=O)/C=C/c1ccc(F)cc1)C1CCCCC1,AC50,[1],"6.51 µM [rising, partial curve, poor fit]"
Cc1ccc(NC(=O)c2ccccc2)cc1,AC50,[1],"11.2 µM [falling, partial curve, poor fit]"
O=C(NN=Cc1ccccc1OC(F)F)c1cccc(S(=O)(=O)N2CCCC2)c1,AC50,[1],"16.4 µM [falling, partial curve, poor fit]"
Cn1cc(C(=O)c2ccc(Cl)cc2)cc1-c1nc2ccccc2n1C,AC50,[1],"35.5 µM [falling, single point]"
Cc1ccccc1OCC(=O)N/N=C/c1sc(=O)n(Cc2cccc(C(=O)O)c2)c1Cl,AC50,[1],"35.5 µM [falling, single point]"
CCn1c(CNC(=O)c2ccccc2Cl)cc2ccccc21,AC50,[1],"10 µM [rising, partial curve, poor fit]"
CC(C)(C)CN1C(N)=NC[C@H]1Cc1ccc(O)cc1,AC50,[1],"35.5 µM [rising, single point]"
CCOC(=O)C1=C(COC(=O)CCNS(=O)(=O)c2ccc(C)c(C)c2)NC(=O)NC1C (stereo unspecified),AC50,[1],"16.4 µM [rising, partial curve, poor fit]"
C(=N\Nc1nc2ccccc2s1)/c1ccccn1,AC50,[1],"8.91 µM [falling, partial curve]"
same,AC50,[2],"2.82 µM [falling, full curve, poor fit]"
C/C(=N/NC(=O)c1cccs1)c1cccs1,AC50,[1],"14.1 µM [falling, single point]"
N=c1c2ccccc2nnn1-c1cccc(C(F)(F)F)c1,AC50,[1],"3.16 µM [rising, partial curve]"
CCCOC(=O)C1=C(C)NC2=C(C(=O)C(C(=O)OC)C(C)C2)C1c1ccc(N(CC)CC)cc1 (stereo unspecified),AC50,[1],"29.1 µM [rising, single point]"
CCOC(=O)c1c(-c2ccccc2)c2cc(OC)ccc2n1CCCN(C)C,AC50,[1],"12.6 µM [falling, partial curve]"
CCOC(=O)c1c(-c2ccc(OC)cc2)cn2ccccc12,AC50,[1],"17.8 µM [falling, single point]"
Cc1ccc(CN(C)C(=O)c2cccc(S(=O)(=O)N3CCc4ccccc43)c2)cc1,AC50,[1],"18.4 µM [falling, single point]"
NNC(=O)c1cccc(Cn2cc(Br)c([N+](=O)[O-])n2)c1,AC50,[1],"10 µM [falling, partial curve, poor fit]"
CCCCOC(=O)C1Cc2ccccc2C(=O)O1 (stereo unspecified),AC50,[1],"18.4 µM [rising, single point]"
COc1c(S(=O)(=O)N2CCCC2)ccc(Cl)c1Cl,AC50,[1],"23.1 µM [rising, partial curve, poor fit]"
Cc1cccc(OCC(=O)Nc2ccccc2F)c1,AC50,[1],"8.91 µM [falling, partial curve, poor fit]"
O=C(O)C1CC=CCC1C(=O)Nc1ccc2c(c1)OCCO2 (stereo unspecified),AC50,[2],"20.6 µM [rising, partial curve, poor fit]"
CCCc1cc(=O)oc2c3c(c4c(c12)OC(C)(C)C=C4)OC(C)C(C)C3O (stereo unspecified),AC50,[1],"35.5 µM [falling, single point]"
CCOc1ccc(NC(=O)N2CCC(c3nc4ccccc4[nH]3)CC2)cc1,AC50,[1],"2.82 µM [rising, full curve, poor fit]"
CCOc1ccc(S(=O)(=O)NCCC(=O)OCC(=O)Nc2cc(C)on2)cc1,AC50,[1],"7.94 µM [rising, partial curve]"
CC(=O)N1c2ccc(F)c(F)c2C[C@H]1C,AC50,[1],"0.231 µM [falling, full curve]"
Cc1ccc(-c2cn3cc([N+](=O)[O-])ccc3n2)cc1,AC50,[1],"29.1 µM [falling, single point]"
COc1ccc(S(=O)(=O)c2c(N)n(Cc3ccco3)c3nc4ccccc4nc23)cc1,AC50,[1],"11.2 µM [falling, partial curve]"
COc1cc(-c2nc3ccc4ccccc4c3c3c2CCC3)cc(OC)c1OC,AC50,[1],"11.2 µM [falling, partial curve]"
CCN(CC)CCNc1ncnc2c1sc1nc(N3CCOCC3)c3c(c12)CC(C)(C)SC3,AC50,[1],"7.08 µM [rising, full curve, poor fit]"
COc1ccc2[nH]c3ccccc3c2c1,AC50,[1],"2.82 µM [rising, partial curve, poor fit]"
CCCCNC(=O)c1cn(CC)c2cc(N3CCN(C)CC3)c(F)cc2c1=O,AC50,[1],"35.5 µM [rising, single point]"
O=C(COc1ccc2c(-c3ccccc3)cc(=O)oc2c1)NCC(O)c1ccccc1 (stereo unspecified),AC50,[1],"2.82 µM [falling, single point]"
CC1=CC(=O)O[C@@H]1[C@@]1(C)C[C@H]2OC(=O)C[C@H]3[C@@H](C)C(=O)C(O)=C1[C@@]23CO,AC50,[1],"29.1 µM [falling, single point]"
Fc1cccc(Cl)c1CSc1nnc(CNc2ccccc2)o1,AC50,[1],"8.91 µM [rising, partial curve, poor fit]"
O=C(COc1ccc(Cl)cc1Cl)NC(=S)N1CCCc2ccccc21,AC50,[1],"18.4 µM [rising, single point]"
Cc1[nH]nc2c1C1(CCN(Cc3ccccc3)CC1)C(C#N)=C(N)O2,AC50,[1],"0.146 µM [falling, full curve, poor fit]"
O=C(NN1C(=O)C2C(C1=O)C1C=CC2C12CC2)c1ccccc1 (stereo unspecified),AC50,[1],"6.31 µM [rising, single point]"
CCOC(=O)c1ccc(NC(=O)c2c(NC(=O)CCC(=O)O)sc3c2CCCCC3)cc1,AC50,[1],"14.1 µM [falling, single point]"
Cc1ccc(C)c(-c2csc(N)c2C(=O)OC(C)C)c1,AC50,[1],"20.6 µM [rising, single point]"
Cc1ccc(NC(=O)c2c(C)oc3ncn(C)c(=O)c23)cc1F,AC50,[1],"2.24 µM [falling, full curve]"
O=C(CC1SC(=O)N(c2ccccc2)C1=O)Nc1ccc(Br)cc1 (stereo unspecified),AC50,[1],"25.1 µM [falling, single point]"
Cc1nnc(-c2cnn(C)c2N)n1Cc1ccccc1F,AC50,[1],"6.51 µM [falling, single point]"
CC[C@]12c3[nH]c4cc(CCC(=O)N(C)C)ccc4c3CCN1C(=O)[C@@H](CC(=O)NCCCN(C)C)C[C@@H]2C(=O)N1CCN(C(=O)c2ccco2)CC1,AC50,[1],"18.4 µM [rising, partial curve]"
same,AC50,[2],"14.6 µM [falling, partial curve]"
COC(=O)c1cc(S(=O)(=O)Nc2nn(C)c3cccc(F)c23)oc1C,AC50,[1],"20 µM [rising, single point]"
Cc1ccc(NC2=C(N3CCOCC3)C(=O)c3ccccc3C2=O)cc1,AC50,[1],"0.82 µM [falling, full curve, poor fit]"
COc1ccccc1NC(=O)N1CCCC1C(=O)Nc1ccc(NC(C)=O)cc1 (stereo unspecified),AC50,[1],"14.1 µM [rising, single point]"
CC(Nc1ccccc1)C(=O)Nc1ccc(F)cc1 (stereo unspecified),AC50,[1],"10.3 µM [rising, partial curve]"
CC(=O)Nc1cccc(NC(=O)c2cc3ccccc3o2)c1,AC50,[1],"3.98 µM [falling, partial curve]"
Nc1nc(-c2ccccc2)cn1N,AC50,[1],"1.58 µM [falling, full curve, poor fit]"
Cc1cccc(/C(N)=N/OC(=O)c2cccs2)c1,AC50,[1],"3.98 µM [rising, single point]"
Cc1ccc(S(=O)(=O)NCc2ccncc2)c(C)c1C,AC50,[1],"15.8 µM [falling, partial curve]"
CCc1cccc(C)c1NC(=S)N(CCOC)C(C)c1ccco1 (stereo unspecified),AC50,[1],"0.794 µM [rising, full curve, poor fit]"
O=C1NC2(CCCCCC2)C(=O)N1Cc1ccccc1,AC50,[1],"35.5 µM [falling, single point]"
CCCCCCC(=O)NN1CCN(C)CC1,AC50,[1],"0.58 µM [falling, full curve, poor fit]"
COc1ccccc1NC(=O)CSC1=Nc2ccccc2C2=NC(CC(=O)NCCc3ccccc3)C(=O)N12 (stereo unspecified),AC50,[1],"8.91 µM [falling, partial curve, poor fit]"
O=C(CCc1ccccc1)Nc1ccc(N2CCOCC2)cc1,AC50,[1],"22.4 µM [rising, single point]"
Cc1cc(/C=C(\C#N)C(=O)NCc2cccs2)c(C)[nH]1,AC50,[1],"10 µM [falling, partial curve, poor fit]"
COc1ccc2nc(NC(=O)CN3C(=O)NC4(CCCCC4)C3=O)sc2c1,AC50,[1],"22.4 µM [falling, single point]"
c1ccc(Cn2nnc(CNc3ccccc3)c2-c2c(CNc3ccccc3)nnn2Cc2ccccc2)cc1,AC50,[1],"35.5 µM [falling, single point]"

# Nothing new here: entries from further up.
structure (smiles),measurement,setting,value
CCCc1cc(=O)oc2c3c(c4c(c12)OC(C)(C)C=C4)OC(C)C(C)C3O (stereo unspecified),AC50,[1],"35.5 µM [falling, single point]"
CCOc1ccc(NC(=O)N2CCC(c3nc4ccccc4[nH]3)CC2)cc1,AC50,[1],"2.82 µM [rising, full curve, poor fit]"
CCOc1ccc(S(=O)(=O)NCCC(=O)OCC(=O)Nc2cc(C)on2)cc1,AC50,[1],"7.94 µM [rising, partial curve]"
CC(=O)N1c2ccc(F)c(F)c2C[C@H]1C,AC50,[1],"0.231 µM [falling, full curve]"
Cc1ccc(-c2cn3cc([N+](=O)[O-])ccc3n2)cc1,AC50,[1],"29.1 µM [falling, single point]"
COc1ccc(S(=O)(=O)c2c(N)n(Cc3ccco3)c3nc4ccccc4nc23)cc1,AC50,[1],"11.2 µM [falling, partial curve]"
COc1cc(-c2nc3ccc4ccccc4c3c3c2CCC3)cc(OC)c1OC,AC50,[1],"11.2 µM [falling, partial curve]"
CCN(CC)CCNc1ncnc2c1sc1nc(N3CCOCC3)c3c(c12)CC(C)(C)SC3,AC50,[1],"7.08 µM [rising, full curve, poor fit]"
COc1ccc2[nH]c3ccccc3c2c1,AC50,[1],"2.82 µM [rising, partial curve, poor fit]"
CCCCNC(=O)c1cn(CC)c2cc(N3CCN(C)CC3)c(F)cc2c1=O,AC50,[1],"35.5 µM [rising, single point]"
O=C(COc1ccc2c(-c3ccccc3)cc(=O)oc2c1)NCC(O)c1ccccc1 (stereo unspecified),AC50,[1],"2.82 µM [falling, single point]"
CC1=CC(=O)O[C@@H]1[C@@]1(C)C[C@H]2OC(=O)C[C@H]3[C@@H](C)C(=O)C(O)=C1[C@@]23CO,AC50,[1],"29.1 µM [falling, single point]"
Fc1cccc(Cl)c1CSc1nnc(CNc2ccccc2)o1,AC50,[1],"8.91 µM [rising, partial curve, poor fit]"
O=C(COc1ccc(Cl)cc1Cl)NC(=S)N1CCCc2ccccc21,AC50,[1],"18.4 µM [rising, single point]"
Cc1[nH]nc2c1C1(CCN(Cc3ccccc3)CC1)C(C#N)=C(N)O2,AC50,[1],"0.146 µM [falling, full curve, poor fit]"
O=C(NN1C(=O)C2C(C1=O)C1C=CC2C12CC2)c1ccccc1 (stereo unspecified),AC50,[1],"6.31 µM [rising, single point]"
CCOC(=O)c1ccc(NC(=O)c2c(NC(=O)CCC(=O)O)sc3c2CCCCC3)cc1,AC50,[1],"14.1 µM [falling, single point]"
Cc1ccc(C)c(-c2csc(N)c2C(=O)OC(C)C)c1,AC50,[1],"20.6 µM [rising, single point]"
